Measured values published in doi:10.1101/2022.04.05.486672.
No constants are given. Whether binding was seen depends on the method and setting. Binding seen in cells or lysates may run through a third protein. Binding calls can cover weak binding; strength is not graded here. Tags and fused reporters may be left off the sequences shown.

Target: T1, PEP7-(His)6, synthetic C-terminally HIS-tagged PEP7 (Arabidopsis) (UniProt P0C1T5)
T1 sequence (peptide): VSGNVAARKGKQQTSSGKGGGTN
Assay: pull-down

binding: binds
Substance: native full-length SIRK1 in root microsomal membrane preparations (Arabidopsis (endogenous in roots)) (receptor)
